Results published in patent US20230150944A1, “PESTICIDALLY ACTIVE HETEROCYCLIC DERIVATIVES WITH SULFOXIMINE CONTAINING SUBSTITUENTS” (SYNGENTA CROP PROTECTION AG, priority 2018, published 2023).
Some entries share one result that the patent states for a list of compounds.

Test system: Heterodera schachtii second stage juveniles
Assay: Example B12: Activity on Heterodera schachtii juvenile mobility in vitro profiling in 96 well plate
Format: in vivo
Settings: 100 ppm, after 48 h

| Structure (SMILES) | control (juvenile mobility) |
| --- | --- |
| CCS(=N)(=O)c1cc(C2(C#N)CC2)ccc1-c1nc2cc(C(F)(F)F)cnc2n1C (centres unmarked) [Example P15, 1-[3-(ethylsulfonimidoyl)-4-[3-methyl-6-(trifluoromethyl)imidazo[4,5-b]pyridin-2-yl]phenyl]cyclopropanecarbonitrile] | at least 60% |
| CCS(=N)(=O)c1cc(C2(C#N)CC2)cnc1-c1nc2cc(C(F)(F)F)nnc2n1C (centres unmarked) [Example P10, 1-[5-(ethylsulfonimidoyl)-6-[7-methyl-3-(trifluoromethyl)imidazo[4,5-c]pyridazin-6-yl]-3-pyridyl]cyclopropanecarbonitrile] | at least 60% |
